## Binding screen against folded nucleic acids

Targets (5′ to 3′):
PreQ1: PreQ1 riboswitch RNA pseudoknot, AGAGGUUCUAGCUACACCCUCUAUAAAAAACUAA. From B. subtilis. Hit rate about 0.7% of about 24,000 compounds.
SAM-II: SAM-II riboswitch RNA pseudoknot, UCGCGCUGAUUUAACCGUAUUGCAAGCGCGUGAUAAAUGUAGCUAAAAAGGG. Hit rate about 1% of about 21,000 compounds.
TPP: TPP riboswitch RNA three-way junction, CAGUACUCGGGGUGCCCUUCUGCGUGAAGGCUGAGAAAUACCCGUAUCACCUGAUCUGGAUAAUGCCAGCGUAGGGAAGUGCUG. Hit rate about 0.7% of about 24,000 compounds.

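Compounds were printed on reactive glass slides in duplicate spots, a dye-labelled oligonucleotide was laid over them, and the fluorescence left after washing was read. The data file lists only calls. An earlier report of the laboratory on the PreQ1, TPP and SAM-II riboswitches (doi:10.1038/s41467-019-09493-3) used 1 µM RNA for 2 h and required a mean Z-score above 3 (spot signal-to-noise against the whole library), a score well above that on a control array, and duplicate spots agreeing (coefficient of variation under 100); it then also set aside compounds that hit other targets, which this list keeps. The cut-offs behind this list may differ. The calls come from the array alone, and fixing a compound to the slide can hide its binding.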
A compound is marked active if it was called a hit and inactive if it was screened but was not.
The compounds are a random part of those screened.
A target missing from an entry has no call listed here.
A dash means that no call is listed here.

CCOC(=O)c1c(N)sc(C(=O)NC)c1C was scored PreQ1: inactive; SAM-II: inactive; TPP: inactive. Cc1c(Cl)cccc1-c1ccc(CNCC(O)c2ccccc2)o1 (stereo not given) was scored PreQ1: inactive; TPP: inactive. With c1cn(Cc2ccc3nsnc3c2)c(-c2cn(C3CCNCC3)nn2)n1 the screen gave PreQ1: inactive; SAM-II: inactive; TPP: inactive. Calls for CCc1nc(C)c(C(=O)N2Cc3ccccc3C(O)C2)o1 (stereo not given) are PreQ1: inactive; SAM-II: inactive; TPP: inactive.

For COC(=O)c1ccccc1Nc1c(-c2ccccc2O)nc2cnccn12 the calls were PreQ1: inactive; TPP: inactive. With CC1(C)CCSC(/C=C/c2ccccc2)=N1 the screen gave PreQ1: inactive; SAM-II: inactive; TPP: inactive. COCCC1(CO)CCCN(C(=O)c2ccccc2C#N)C1 (stereo not given) was scored PreQ1: inactive; SAM-II: inactive; TPP: inactive. Calls for Nc1nnc(SCC(=O)N2CCCCC2)s1 are PreQ1: inactive; SAM-II: inactive; TPP: inactive.

For COCCc1nc(-c2ccc(CO)o2)n(C2CCS(=O)(=O)C2)n1 (stereo not given) the calls were PreQ1: inactive; SAM-II: inactive; TPP: inactive. Cc1ccn2c(-c3csc(Nc4cccc(C(=O)O)c4)n3)c(C)nc2c1 was scored PreQ1: inactive; SAM-II: inactive; TPP: inactive. For COc1ccccc1CCNC(=O)c1ccc2c(c1)ncn2CCO the calls were PreQ1: inactive; SAM-II: inactive; TPP: inactive. For CCOc1ccccc1CNc1nc2nc(C)cc(C)n2n1 the calls were PreQ1: inactive; TPP: inactive.

With COCCN(CC(O)Cn1c2ccccc2c2ccccc21)S(=O)(=O)c1ccc(F)cc1 (stereo not given) the screen gave PreQ1: inactive; SAM-II: inactive; TPP: inactive. Calls for CC(=O)N1CCCC(c2nc(-c3ccc(-n4nc(C)cc4N)cc3)no2)C1 (stereo not given) are PreQ1: inactive; SAM-II: inactive; TPP: inactive. With COc1ccc(-c2nc3c(c(=S)[nH]2)Cc2c(CO)cnc(C)c2O3)cc1 the screen gave PreQ1: inactive; SAM-II: inactive; TPP: inactive. For O=C(CN1CCN(Cc2ccoc2)CC(O)C1)N1CCCCC1 (stereo not given) the calls were PreQ1: inactive; SAM-II: inactive; TPP: inactive.

O=C(c1cccc2nccnc12)N1CCC(C(O)Cc2ccccc2)CC1 (stereo not given) was scored PreQ1: inactive; SAM-II: inactive; TPP: inactive. Calls for c1ccc(-c2nc3c(c(NCCCn4cccn4)n2)CCNCC3)cc1 are PreQ1: inactive; SAM-II: inactive; TPP: inactive. Cc1ccc([C@H]2CN(C(=O)CCc3ccc4c(c3)OCO4)C[C@@H]2N)o1 was scored PreQ1: inactive; SAM-II: inactive; TPP: inactive. COc1ccc(CNc2ccc3c(c2)oc(=O)n3C)cc1 was scored PreQ1: inactive; SAM-II: inactive; TPP: inactive.

Cn1ccnc1SCC(O)c1ccccc1 (stereo not given) was scored PreQ1: inactive; TPP: inactive. Calls for COCc1cc(CN2CC3(CCNCC3)CC2C(=O)O)ccc1OC (stereo not given) are PreQ1: inactive; SAM-II: inactive; TPP: inactive. Cc1ccccc1C1CCN(CCNC(=O)c2cn3c(n2)CNCC3)C1 (stereo not given) was scored PreQ1: inactive; SAM-II: inactive; TPP: inactive. Calls for NC(=O)c1cccc(-c2cc(Nc3ccc(OC(F)(F)F)cc3)ncn2)c1 are PreQ1: inactive; SAM-II: inactive; TPP: inactive.

CCCc1nc(N)c(C#N)c(-c2cccs2)c1CC was scored PreQ1: inactive; SAM-II: inactive; TPP: inactive. CNC(=O)Cn1nc(C(=O)N2CCCC(CO)(CC3CC3)C2)cc1C (stereo not given) was scored PreQ1: inactive; SAM-II: inactive; TPP: inactive.

Some entries from above, unchanged:

SMILES,PreQ1,SAM-II,TPP
CNC(=O)Cn1nc(C(=O)N2CCCC(CO)(CC3CC3)C2)cc1C (stereo not given),inactive,inactive,inactive
Cn1ccnc1SCC(O)c1ccccc1 (stereo not given),inactive,-,inactive
Nc1nnc(SCC(=O)N2CCCCC2)s1,inactive,inactive,inactive

Calls as published in the ROBIN set (doi:10.1002/anie.202211358).